Inconclusive results, whose numbers are uncertain, are shown with a selection of clear calls. The source made the active and inactive calls.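 Rule for the calls: active = fitted half-maximal concentration for caspase signal rise at or below the highest valid tested dose; inconclusive = flat fit at 30 to 70% of control, or poor fit; inactive = the rest.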
Experiment: apoptosis induction, A1-2A-tBid fibroblasts – cell-based, tBid as inducer, caspase 3/7 luminescence, dry powder, A1 inhibitor project, dose response (AID 488897)
Conditions: MEF A1-2A-tBid cells, 3 h; at 150 µM (top of the series)
How it was run: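 Assay system – mouse embryonic fibroblasts co-expressing A1-2A-tBid, primed by tBid · Amount – 2500 cells per well · Medium – TSA added at seeding · Compound – dose-response series, pin-transferred · Incubation – 3 h compound exposure at 37 °C, 1 h room-temperature detection · Detection – luminescence, Caspase-Glo 3/7 DEVD-luciferin reagent diluted 1:1 in 50 mM HEPES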

| SMILES | outcome | caspase activation |
| --- | --- | --- |
| CC1(C)CCC(c2ccc(Cl)cc2)=C(CN2CCN(c3ccc(C(=O)NS(=O)(=O)c4ccc(N[C@H](CCN5CCOCC5)CSc5ccccc5)c(S(=O)(=O)C(F)(F)F)c4)cc3)CC2)C1 | inconclusive |  |
| COc1cc(/C=C(/C#N)c2nc3ccccc3[nH]2)ccc1OCC(=O)Nc1ccccc1C(C)C |  | inactive: 1.39% |

Source: PubChem BioAssay AID488897 (Broad Institute, 2010)
